These are yes or no findings as the source states them, for the method shown. In cells and extracts the contact can be indirect. Some binding calls cover weakened binding; strength is not graded here. Where a sequence is shown, tags or fusion partners need not be part of it.
T1: FLAG-tagged mouse RIPK1 (doxycycline-inducible) (mouse) (UniProt Q60855)
T1 sequence: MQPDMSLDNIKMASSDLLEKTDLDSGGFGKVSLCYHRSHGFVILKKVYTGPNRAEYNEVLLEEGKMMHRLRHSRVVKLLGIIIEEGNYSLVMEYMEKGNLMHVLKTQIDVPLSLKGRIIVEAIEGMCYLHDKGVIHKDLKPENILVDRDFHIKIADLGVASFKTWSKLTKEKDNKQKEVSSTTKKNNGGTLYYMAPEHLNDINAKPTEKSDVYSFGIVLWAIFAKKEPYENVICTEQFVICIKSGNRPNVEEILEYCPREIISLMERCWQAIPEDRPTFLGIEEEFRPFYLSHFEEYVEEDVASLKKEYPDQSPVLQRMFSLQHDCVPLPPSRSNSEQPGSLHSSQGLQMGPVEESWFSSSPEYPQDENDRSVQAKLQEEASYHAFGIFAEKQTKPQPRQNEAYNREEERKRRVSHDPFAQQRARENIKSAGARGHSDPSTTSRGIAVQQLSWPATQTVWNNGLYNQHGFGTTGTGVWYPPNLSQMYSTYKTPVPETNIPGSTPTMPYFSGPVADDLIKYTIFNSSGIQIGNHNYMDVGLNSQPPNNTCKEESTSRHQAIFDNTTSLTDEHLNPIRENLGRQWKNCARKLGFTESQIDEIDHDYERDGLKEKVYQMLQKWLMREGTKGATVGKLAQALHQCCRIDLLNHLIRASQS

T2: FLAG-tagged mouse RIPK1 (doxycycline-inducible) (mouse), Q60855
T2 chain: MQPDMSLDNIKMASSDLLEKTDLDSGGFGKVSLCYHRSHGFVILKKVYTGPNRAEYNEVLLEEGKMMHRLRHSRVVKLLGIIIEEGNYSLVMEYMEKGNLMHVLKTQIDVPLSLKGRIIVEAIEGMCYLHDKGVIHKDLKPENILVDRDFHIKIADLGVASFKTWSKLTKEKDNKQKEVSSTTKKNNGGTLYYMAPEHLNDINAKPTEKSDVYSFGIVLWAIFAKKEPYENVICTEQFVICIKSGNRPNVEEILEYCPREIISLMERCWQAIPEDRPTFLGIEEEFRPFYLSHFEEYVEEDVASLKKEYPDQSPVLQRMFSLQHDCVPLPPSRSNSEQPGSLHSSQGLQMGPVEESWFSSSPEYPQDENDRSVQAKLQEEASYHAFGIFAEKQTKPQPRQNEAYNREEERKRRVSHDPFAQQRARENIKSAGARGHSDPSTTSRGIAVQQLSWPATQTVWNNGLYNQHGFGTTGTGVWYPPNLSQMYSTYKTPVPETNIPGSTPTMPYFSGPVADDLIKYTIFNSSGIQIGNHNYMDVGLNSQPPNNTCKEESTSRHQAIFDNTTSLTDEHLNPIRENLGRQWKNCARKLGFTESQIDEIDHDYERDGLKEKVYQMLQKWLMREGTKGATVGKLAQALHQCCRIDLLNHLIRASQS

B1: CASP8 (protein, UniProt O89110 1-480)
chain: MDFQSCLYAIAEELGSEDLAALKFLCLDYIPHKKQETIEDAQKLFLRLREKGMLEEGNLSFLKELLFHISRWDLLVNFLDCNREEMVRELRDPDNAQISPYRVMLFKLSEEVSELELRSFKFLLNNEIPKCKLEDDLSLLEIFVEMEKRTMLAENNLETLKSICDQVNKSLLGKIEDYERSSTERRMSLEGREELPPSVLDEMSLKMAELCDSPREQDSESRTSDKVYQMKNKPRGYCLIINNHDFSKAREDITQLRKMKDRKGTDCDKEALSKTFKELHFEIVSYDDCTANEIHEILEGYQSADHKNKDCFICCILSHGDKGVVYGTDGKEASIYDLTSYFTGSKCPSLSGKPKIFFIQACQGSNFQKGVPDEAGFEQQNHTLEVDSSSHKNYIPDEADFLLGMATVKNCVSYRDPVNGTWYIQSLCQSLRERCPQGDDILSILTGVNYDVSNKDDRRNKGKQMPQPTFTLRKKLFFPP
B2: RIPK3 (endogenous, MEFs), Q9QZL0 1-486 (protein)
chain: MSSVKLWPTGASAVPLVSREELKKLEFVGKGGFGVVFRAHHRTWNHDVAVKIVNSKKISWEVKAMVNLRNENVLLLLGVTEDLQWDFVSGQALVTRFMENGSLAGLLQPECPRPWPLLCRLLQEVVLGMCYLHSLNPPLLHRDLKPSNILLDPELHAKLADFGLSTFQGGSQSGSGSGSGSRDSGGTLAYLDPELLFDVNLKASKASDVYSFGILVWAVLAGREAELVDKTSLIRETVCDRQSRPPLTELPPGSPETPGLEKLKELMIHCWGSQSENRPSFQDCEPKTNEVYNLVKDKVDAAVSEVKHYLSQHRSSGRNLSAREPSQRGTEMDCPRETMVSKMLDRLHLEEPSGPVPGKCPERQAQDTSVGPATPARTSSDPVAGTPQIPHTLPFRGTTPGPVFTETPGPHPQRNQGDGRHGTPWYPWTPPNPMTGPPALVFNNCSEVQIGNYNSLVAPPRTTASSSAKYDQAQFGRGRGWQPFHK

Legend:
[1] = biological target: T1, FLAG-tagged mouse RIPK1 (doxycycline-inducible) (mouse); experiment: co-IP; FLAG-IP (ANTI-FLAG M2 affinity gel, 16 h at 4 °C) from lysates of Dox-induced FLAG-mRIPK1-rescued Ripk1-/- MEFs; 30 min pre-treatment with inhibitors (SM, zVAD, with or without MK2 inhibitor) followed by 120 min TNF; immunoblot
[2] = biological target: T2, FLAG-tagged mouse RIPK1 …; experiment: as above; settings: remark: other sources report otherwise

| binding [1] | binding [2] | Binder |
| --- | --- | --- |
| binds |  | B1 |
|  | binds | B2 |
